Source: the M2OR odorant receptor database
The entries are a selection whose mix differs from that of the whole data set. Calls are pooled over several reports, among them a noisy single-well screen. Some of the results follow.

Assays:
Conditions in all cases: stereoisomer not certain
OR6J1 = system: T1, OR6J1
T1 sequence (whole entry): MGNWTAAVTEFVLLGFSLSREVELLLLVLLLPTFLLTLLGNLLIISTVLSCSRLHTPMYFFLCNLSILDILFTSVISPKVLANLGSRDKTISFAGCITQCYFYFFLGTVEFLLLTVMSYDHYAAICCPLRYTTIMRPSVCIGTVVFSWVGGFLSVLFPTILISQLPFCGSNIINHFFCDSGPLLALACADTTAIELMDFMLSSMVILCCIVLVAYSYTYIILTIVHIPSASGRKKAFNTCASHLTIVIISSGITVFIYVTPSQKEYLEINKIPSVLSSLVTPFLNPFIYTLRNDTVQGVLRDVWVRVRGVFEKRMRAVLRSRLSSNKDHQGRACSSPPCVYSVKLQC
Outline: (§1)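 Each receptor–molecule pair is labelled responsive or non-responsive (inactive) according to whether the original authors judged the measured signal statistically different from baseline. The data were taken from the main text and supplementary material of published papers and checked for typos and inconsistencies. Assay methods differed by source, with transient luciferase assays in mammalian cell lines being common.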

OR6K2 (Homo sapiens) = target: T2, OR6K2 (Homo sapiens) (UniProt Q8NGY2)
T2 sequence (whole entry): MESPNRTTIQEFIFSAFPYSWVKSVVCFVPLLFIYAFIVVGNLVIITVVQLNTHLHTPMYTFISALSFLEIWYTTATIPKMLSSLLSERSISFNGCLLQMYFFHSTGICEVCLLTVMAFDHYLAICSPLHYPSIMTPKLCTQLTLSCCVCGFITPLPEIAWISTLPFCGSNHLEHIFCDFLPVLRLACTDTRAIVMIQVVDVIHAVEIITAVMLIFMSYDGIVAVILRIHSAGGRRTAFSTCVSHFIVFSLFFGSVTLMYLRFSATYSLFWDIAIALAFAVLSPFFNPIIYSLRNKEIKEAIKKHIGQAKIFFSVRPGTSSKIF
Outline: as §1

OR6K3 [1] = system: T3, OR6K3
T3 sequence (whole entry): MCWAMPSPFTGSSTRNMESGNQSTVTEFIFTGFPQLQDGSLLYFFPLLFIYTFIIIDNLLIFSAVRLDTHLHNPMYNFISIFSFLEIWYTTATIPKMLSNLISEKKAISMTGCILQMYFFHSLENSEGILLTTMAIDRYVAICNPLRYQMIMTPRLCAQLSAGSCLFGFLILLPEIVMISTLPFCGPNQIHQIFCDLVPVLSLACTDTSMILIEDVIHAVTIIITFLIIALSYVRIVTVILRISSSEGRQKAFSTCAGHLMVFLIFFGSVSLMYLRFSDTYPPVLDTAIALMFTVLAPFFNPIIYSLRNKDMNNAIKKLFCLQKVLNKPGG
Outline: as §1

OR6K3 [2] = system: T4, OR6K3; remark: listed apart in the source
T4 sequence (whole entry): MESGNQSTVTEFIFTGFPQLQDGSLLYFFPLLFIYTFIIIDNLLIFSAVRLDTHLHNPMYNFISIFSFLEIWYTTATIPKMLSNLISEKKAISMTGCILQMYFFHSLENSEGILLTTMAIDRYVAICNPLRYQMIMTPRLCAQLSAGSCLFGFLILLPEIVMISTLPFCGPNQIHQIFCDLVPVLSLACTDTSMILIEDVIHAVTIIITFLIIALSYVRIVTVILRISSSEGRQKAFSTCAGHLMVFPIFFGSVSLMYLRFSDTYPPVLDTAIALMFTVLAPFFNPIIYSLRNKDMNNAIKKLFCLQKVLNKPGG
Outline: as §1

OR6K6 [3] = system: T5, OR6K6
T5 sequence (whole entry): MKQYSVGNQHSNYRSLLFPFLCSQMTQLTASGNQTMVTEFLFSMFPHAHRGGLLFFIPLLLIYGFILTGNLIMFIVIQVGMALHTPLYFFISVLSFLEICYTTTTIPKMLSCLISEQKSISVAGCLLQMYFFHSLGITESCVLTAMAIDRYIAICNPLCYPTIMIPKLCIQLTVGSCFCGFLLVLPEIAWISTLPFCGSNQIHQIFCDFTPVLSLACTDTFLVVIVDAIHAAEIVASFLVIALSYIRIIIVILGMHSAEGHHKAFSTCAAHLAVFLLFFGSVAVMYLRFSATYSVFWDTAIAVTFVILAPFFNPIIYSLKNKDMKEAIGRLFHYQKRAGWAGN
Outline: as §1

OR6K6 [4] = system: T6, OR6K6; remark: listed apart in the source
T6 sequence (whole entry): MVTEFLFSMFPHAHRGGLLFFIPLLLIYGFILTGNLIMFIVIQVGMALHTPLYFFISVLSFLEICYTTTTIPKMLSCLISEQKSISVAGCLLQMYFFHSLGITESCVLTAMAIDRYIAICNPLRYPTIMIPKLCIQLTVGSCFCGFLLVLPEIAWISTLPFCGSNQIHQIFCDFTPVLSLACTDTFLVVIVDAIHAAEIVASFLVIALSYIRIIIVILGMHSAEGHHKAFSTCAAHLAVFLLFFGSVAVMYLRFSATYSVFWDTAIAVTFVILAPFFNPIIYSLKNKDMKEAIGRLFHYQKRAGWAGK
Outline: as §1

OR6M1 (Homo sapiens) = target: T7, OR6M1 (Homo sapiens) (UniProt Q8NGM8)
T7 sequence (whole entry): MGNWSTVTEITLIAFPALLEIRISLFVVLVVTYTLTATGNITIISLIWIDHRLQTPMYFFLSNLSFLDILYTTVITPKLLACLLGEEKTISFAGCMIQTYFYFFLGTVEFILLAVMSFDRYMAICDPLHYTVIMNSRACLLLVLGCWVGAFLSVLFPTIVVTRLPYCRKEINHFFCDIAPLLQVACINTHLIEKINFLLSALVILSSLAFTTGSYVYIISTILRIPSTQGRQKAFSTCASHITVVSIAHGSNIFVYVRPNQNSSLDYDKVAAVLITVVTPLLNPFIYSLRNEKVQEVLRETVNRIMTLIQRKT
Outline: as §1

OR6N1 = system: T8, OR6N1
T8 sequence (whole entry): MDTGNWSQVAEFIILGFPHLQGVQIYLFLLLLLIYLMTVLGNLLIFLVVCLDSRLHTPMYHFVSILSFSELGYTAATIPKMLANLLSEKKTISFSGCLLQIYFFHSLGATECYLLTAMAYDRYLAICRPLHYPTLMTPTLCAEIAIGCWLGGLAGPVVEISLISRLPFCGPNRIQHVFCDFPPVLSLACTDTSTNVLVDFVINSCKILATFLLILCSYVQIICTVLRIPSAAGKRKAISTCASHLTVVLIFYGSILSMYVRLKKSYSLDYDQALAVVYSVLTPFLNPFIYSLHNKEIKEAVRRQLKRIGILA
Outline: as §1

OR6N2 (Homo sapiens) = target: T9, OR6N2 (Homo sapiens) (UniProt Q8NGY6)
T9 sequence (whole entry): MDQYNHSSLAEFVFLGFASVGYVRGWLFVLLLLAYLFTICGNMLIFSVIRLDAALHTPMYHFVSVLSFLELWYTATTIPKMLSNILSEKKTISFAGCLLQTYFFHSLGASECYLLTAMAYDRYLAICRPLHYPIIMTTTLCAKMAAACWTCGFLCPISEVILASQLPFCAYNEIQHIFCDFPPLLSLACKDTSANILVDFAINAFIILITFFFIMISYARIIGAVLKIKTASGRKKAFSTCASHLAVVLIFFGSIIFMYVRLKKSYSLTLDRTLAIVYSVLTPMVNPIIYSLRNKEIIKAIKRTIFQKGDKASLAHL
Outline: as §1

OR6P1 (Homo sapiens) = target: T10, OR6P1 (Homo sapiens) (UniProt Q8NGX9)
T10 sequence (whole entry): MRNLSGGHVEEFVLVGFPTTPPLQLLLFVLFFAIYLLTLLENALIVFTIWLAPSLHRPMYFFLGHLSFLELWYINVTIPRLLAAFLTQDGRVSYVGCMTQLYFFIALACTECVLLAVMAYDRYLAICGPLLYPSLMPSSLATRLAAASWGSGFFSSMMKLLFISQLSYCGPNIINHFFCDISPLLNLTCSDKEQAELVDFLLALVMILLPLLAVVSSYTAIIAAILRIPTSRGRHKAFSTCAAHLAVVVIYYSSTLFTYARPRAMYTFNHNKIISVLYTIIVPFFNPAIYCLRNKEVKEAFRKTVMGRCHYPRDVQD
Outline: as §1

OR6Q1 (Homo sapiens) = target: T11, OR6Q1 (Homo sapiens) (UniProt Q8NGQ2)
T11 sequence (whole entry): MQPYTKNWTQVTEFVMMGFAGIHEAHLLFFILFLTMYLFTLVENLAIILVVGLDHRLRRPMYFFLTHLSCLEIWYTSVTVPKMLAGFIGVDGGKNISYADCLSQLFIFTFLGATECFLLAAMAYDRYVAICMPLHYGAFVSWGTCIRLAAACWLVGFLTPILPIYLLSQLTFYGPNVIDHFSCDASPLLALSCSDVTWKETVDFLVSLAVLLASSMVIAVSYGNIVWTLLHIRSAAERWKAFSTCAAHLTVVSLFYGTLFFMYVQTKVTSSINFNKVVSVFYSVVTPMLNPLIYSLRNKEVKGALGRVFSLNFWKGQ
Outline: as §1

OR6S1 = system: T12, OR6S1
T12 sequence (whole entry): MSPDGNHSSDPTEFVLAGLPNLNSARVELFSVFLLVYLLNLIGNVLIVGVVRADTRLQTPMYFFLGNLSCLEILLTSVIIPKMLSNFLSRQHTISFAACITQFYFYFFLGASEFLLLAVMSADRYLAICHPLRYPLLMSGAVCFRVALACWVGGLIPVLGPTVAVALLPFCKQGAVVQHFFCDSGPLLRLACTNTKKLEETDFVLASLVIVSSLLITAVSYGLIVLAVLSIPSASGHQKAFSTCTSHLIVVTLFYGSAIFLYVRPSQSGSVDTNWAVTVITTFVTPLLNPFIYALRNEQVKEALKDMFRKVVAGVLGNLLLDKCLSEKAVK
Outline: as §1

OR6T1 = system: T13, OR6T1
T13 sequence (whole entry): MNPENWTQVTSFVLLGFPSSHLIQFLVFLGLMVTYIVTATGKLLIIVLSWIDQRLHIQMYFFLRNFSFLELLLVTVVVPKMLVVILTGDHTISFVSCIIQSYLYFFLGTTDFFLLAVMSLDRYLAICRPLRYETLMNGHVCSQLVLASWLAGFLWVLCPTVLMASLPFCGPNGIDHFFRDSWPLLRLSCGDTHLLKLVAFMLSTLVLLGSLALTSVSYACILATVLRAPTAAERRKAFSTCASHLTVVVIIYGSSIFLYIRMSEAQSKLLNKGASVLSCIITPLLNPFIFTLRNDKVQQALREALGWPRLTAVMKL
Outline: as §1

Measured: odorant receptor agonist call;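 further: active if original authors judged signal statistically different from baseline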

CCCC(=O)O
inactive: all assays above

CC1=CCC(C(C)(C)O)CC1 (stereo not drawn)
inactive: all assays above

CC12CCC(CC1)C(C)(C)O2
inactive: all assays above

C=CCSCC=C
inactive: all assays above

CCCCCCCCOC(C)=O
inactive: all assays above

CC(=O)OC1CC2CCC1(C)C2(C)C (stereo not drawn)
inactive: all assays above
